14 compounds from PubChem BioAssay AID256 (DTP/NCI, 2004) can be followed below.

The structures appear in SMILES notation. The list does not hold the whole screen: it gathers some chemical classes. Other doses and runs of a compound may be missing. T/C gives the treated animals as a percentage of the vehicle group. Some entries give survivors of the animals treated and no T/C: the source files T/C as zero there, which appears to mark a toxic dose or a test without result, not a measured value. Some survivor counts are full or nearly so, which does not show that the dose was tolerated: the source hardly ever lists a survival T/C far under the control, and the zero likely stands for such cases as well. Survivors were counted at the toxicity check, usually on the fifth day, unless a day is given; later deaths do not show. Schedule codes are those of the source, read here as Q, the interval in days (D) or hours (H), X, the number of doses. Where survival is the endpoint, the PubChem record calls one and a half times the control and up active, and a quarter to a half above the control has no call in these data; cut-offs in other NCI protocols can differ. Some doses were run more than once; the values are given in rising order. Some molecules as drawn cover several salts, stereoisomers or complexes of the source; a dose is that of the sample tested. Some entries show no survivor count and are marked so; the dose need not have been tolerated. Some T/C values carry the count of animals alive at the toxicity check (mostly the fifth day); where neither a count nor a note follows, no animal had died by that day.

The subject of this assay is CD2F1 mice, L1210 leukemia ip, survival T/C. Briefly: NCI In Vivo Anticancer Drug Screen. Data for tumor model L1210 Leukemia (intraperitoneal) in CD2F1 (CDF1) mice. The conditions noted are these: T/C endpoint: mean survival time, higher T/C = longer survival. The method, boiled down:
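Vehicle-treated tumor-bearing mice served as controls (C) for compound-treated mice (T). Reported figure is T divided by C.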

[1] abbreviates: dose: 62.5 mg/kg/injection, schedule: Q01DX001 (ip), vehicle: other.
[2] abbreviates: dose: 125.0 mg/kg/injection, schedule: Q01DX001 (ip), vehicle: other.
Where [3] appears, read: dose: 250.0 mg/kg/injection, schedule: Q01DX001 (ip), vehicle: other.
Where [4] appears, read: dose: 500.0 mg/kg/injection, schedule: Q01DX001 (ip), vehicle: other.
Setting [5] is: dose: 100.0 mg/kg/injection, schedule: Q01DX001 (ip), vehicle: saline with Tween-80.
The mark [6] stands for this setting: dose: 200.0 mg/kg/injection, schedule: Q01DX001 (ip), vehicle: saline with Tween-80.
The mark [7] stands for this setting: dose: 400.0 mg/kg/injection, schedule: Q01DX001 (ip), vehicle: saline with Tween-80.
The mark [8] stands for this setting: dose: 15.62 mg/kg/injection, schedule: Q01DX001 (ip), vehicle: DMSO.
Where [9] appears, read: dose: 31.3 mg/kg/injection, schedule: Q01DX001 (ip), vehicle: DMSO.
Setting [10] is: dose: 62.5 mg/kg/injection, schedule: Q01DX001 (ip), vehicle: DMSO.
The mark [11] stands for this setting: dose: 125.0 mg/kg/injection, schedule: Q01DX001 (ip), vehicle: DMSO.
Where [12] appears, read: dose: 250.0 mg/kg/injection, schedule: Q01DX001 (ip), vehicle: DMSO.
The mark [13] stands for this setting: dose: 500.0 mg/kg/injection, schedule: Q01DX001 (ip), vehicle: DMSO.

With `CC(Cl)CN(CC(C)Cl)C(=O)c1ccccc1` (stereo not given), the T/C runs as follows: (dose: 50.0 mg/kg/injection, schedule: Q01DX009 (ip), vehicle: Klucel (hydroxypropylcellulose) (HPC)) 118 % of control; (dose: 100.0 mg/kg/injection, schedule: Q01DX009 (ip), vehicle: Klucel (hydroxypropylcellulose) (HPC)) 109 % of control. For the same compound, the survivor count (dose: 200.0 mg/kg/injection, schedule: Q01DX009 (ip), vehicle: Klucel (hydroxypropylcellulose) (HPC)) is listed as 1 of 3.
As to `Cc1cc([N+](=O)[O-])ccc1[N+](=O)[O-]`, the T/C (dose: 100.0 mg/kg/injection, schedule: Q04DX003 (ip), vehicle: other) was 93 % of control [survivor count not shown].
As to `O=P1(N(CCCl)CCCl)Nc2ccccc2CO1` (stereo not given), the T/C by setting is: (dose: 25.0 mg/kg/injection, schedule: Q01DX009 (ip), vehicle: water) 89 % of control; (dose: 31.8 mg/kg/injection, schedule: Q01DX001 (ip), vehicle: other) 104 % of control; under setting [1], 96 % of control; under setting [2], 100 % of control; under setting [3], 87 % of control; under setting [4], 90 % of control. For the same compound, the survivor count is 6 of 6 (dose: 50.0 mg/kg/injection, schedule: Q01DX009 (ip), vehicle: water); 6 of 6 (dose: 100.0 mg/kg/injection, schedule: Q01DX009 (ip), vehicle: water); 6 of 6 (dose: 200.0 mg/kg/injection, schedule: Q01DX009 (ip), vehicle: water).
Consider `CCN(CC)CCOC(=O)C(O)(c1ccccc1)c1c(C)cccc1C` (stereo not given), for which the T/C (dose: 75.0 mg/kg/injection, schedule: Q01DX001 (ip), vehicle: saline) was 102 and 104 % of control.
With `C[As](=O)(O)O`, the T/C runs as follows: (dose: 12.5 mg/kg/injection, schedule: Q01DX009 (ip), vehicle: saline) 96 % of control; (dose: 25.0 mg/kg/injection, schedule: Q01DX009 (ip), vehicle: saline) 101 % of control; (dose: 50.0 mg/kg/injection, schedule: Q01DX009 (ip), vehicle: saline) 108 % of control.
With `CCOP(C)(=O)OCCN(C)c1ccc([N+](=O)[O-])cc1` (stereo not given), the T/C (dose: 50.0 mg/kg/injection, schedule: Q04DX002 (ip), vehicle: saline with Tween-80) was 107 % of control [survivor count not shown]; the T/C under setting [5] is 105 % of control [survivor count not shown]; the T/C (dose: 100.0 mg/kg/injection, schedule: Q04DX002 (ip), vehicle: saline with Tween-80) was 104 % of control [survivor count not shown]; the T/C under setting [6] is 105 % of control [survivor count not shown]; the T/C (dose: 200.0 mg/kg/injection, schedule: Q04DX002 (ip), vehicle: saline with Tween-80) is 104 % of control [survivor count not shown]; the T/C under setting [7] was 100 % of control [survivor count not shown].
Take `N#CC1=C(C#N)NP(=O)(N(CCCl)CCCl)N1`: the T/C was 123 % of control (dose: 12.5 mg/kg/injection, schedule: Q01DX009 (ip), vehicle: other); 105 % of control (dose: 25.0 mg/kg/injection, schedule: Q01DX009 (ip), vehicle: other); 102 % of control (dose: 31.3 mg/kg/injection, schedule: Q01DX001 (ip), vehicle: other); 140 % of control (dose: 44.0 mg/kg/injection, schedule: Q01DX009 (ip), vehicle: other); 112 % of control (dose: 50.0 mg/kg/injection, schedule: Q01DX009 (ip), vehicle: other); 98 % of control under setting [1]. The T/C was 168 % of control (dose: 66.0 mg/kg/injection, schedule: Q01DX009 (ip), vehicle: other); 126 and 157 % of control (dose: 100.0 mg/kg/injection, schedule: Q01DX009 (ip), vehicle: other); 96 % of control under setting [2]; 116 % of control (dose: 150.0 mg/kg/injection, schedule: Q01DX009 (ip), vehicle: other); 105 % of control (dose: 200.0 mg/kg/injection, schedule: Q01DX009 (ip), vehicle: other); 104 % of control under setting [3]. Also, the survivor count under setting [4] is 3 of 6.
Take `CC(C)(CO)COP(N)(=O)N(CCCl)CCCl` (stereo not given): the T/C is, setting by setting: (dose: 25.0 mg/kg/injection, schedule: Q01DX001 (ip), vehicle: DMSO) 98 % of control; (dose: 50.0 mg/kg/injection, schedule: Q01DX001 (ip), vehicle: DMSO) 96 % of control; (dose: 100.0 mg/kg/injection, schedule: Q01DX001 (ip), vehicle: DMSO) 96 % of control; (dose: 200.0 mg/kg/injection, schedule: Q01DX001 (ip), vehicle: DMSO) 104 % of control; (dose: 266.0 mg/kg/injection, schedule: Q01DX001 (ip), vehicle: DMSO) 107 % of control; (dose: 400.0 mg/kg/injection, schedule: Q01DX001 (ip), vehicle: DMSO, evaluated on day 25) 114 % of control. Further, the T/C reads like this: (dose: 400.0 mg/kg/injection, schedule: Q01DX001 (ip), vehicle: DMSO, evaluated on day 60) 120 % of control; (dose: 600.0 mg/kg/injection, schedule: Q01DX001 (ip), vehicle: DMSO) 104 % of control; (dose: 900.0 mg/kg/injection, schedule: Q01DX001 (ip), vehicle: DMSO) 114 % of control [4 of 6 alive].
`CC1NP(=O)(N(CCCl)CCCl)OCC(C)C(C)O1` (stereo not given): the T/C under setting [8] is 159 % of control. In addition, the survivor count under setting [9] is given as 4 of 6; the survivor count under setting [10] is reported as 2 of 6; the survivor count under setting [11] is 1 of 6; the survivor count under setting [12] is reported as 0 of 6; the survivor count under setting [13] is given as 0 of 6.
Turning to `COC(=O)N(CCCl)P(=O)(Cl)OC` (stereo not given), the T/C was 95 % of control (dose: 62.5 mg/kg/injection, schedule: Q01DX001 (ip), vehicle: water); 97 % of control (dose: 125.0 mg/kg/injection, schedule: Q01DX001 (ip), vehicle: water); 95 % of control (dose: 250.0 mg/kg/injection, schedule: Q01DX001 (ip), vehicle: water); 100 % of control (dose: 500.0 mg/kg/injection, schedule: Q01DX001 (ip), vehicle: water).
Regarding `CCOP1(N)=NP(Cl)(Cl)=NP(Cl)(Cl)=N1` (stereo not given), the T/C runs as follows: under setting [5], 106 % of control; under setting [6], 101 % of control. The survivor count under setting [7] is recorded as 0 of 6.
`O=[N+]([O-])c1cccc(O)c1[N+](=O)[O-]`: the T/C is 98 % of control (dose: 100.0 mg/kg/injection, schedule: Q04DX003 (ip), vehicle: saline sonified) and 100 % of control (dose: 200.0 mg/kg/injection, schedule: Q04DX003 (ip), vehicle: saline sonified). Further, under “dose: 400.0 mg/kg/injection, schedule: Q04DX003 (ip), vehicle: saline sonified”, the survivor count is 5 of 6.
As for `N=C(N[N+](=O)[O-])N(CCN1CCN=C1N[N+](=O)[O-])N=O`, the T/C (dose: 100.0 mg/kg/injection, schedule: Q01DX009 (ip), vehicle: saline sonified) is 96 % of control; the T/C (dose: 200.0 mg/kg/injection, schedule: Q01DX009 (ip), vehicle: saline sonified) was 94 % of control; the T/C (dose: 400.0 mg/kg/injection, schedule: Q01DX009 (ip), vehicle: saline sonified) was 96 % of control.
With `CC(C=O)COP(=O)(N(CCCl)CCCl)N1CC1` (stereo not given), the T/C under setting [8] is 103 % of control, the T/C under setting [9] is 117 % of control, the T/C under setting [10] is 135 % of control and the T/C under setting [11] was 127 % of control [5 of 6 alive]. In addition, the survivor count by setting is: under setting [12], 3 of 6; under setting [13], 0 of 6.
